# Measured values published in PubChem BioAssay AID493014 (National Center for Advancing Translational Sciences (NCATS), 2011).
# Among all 340,000 compounds or so, about 170 (0.05%) were called active. Inconclusive means that the source gave no clear call. Such entries were picked first, then a sample of the others. Calls follow the shape of the dose curve; as a rule, active = well fitted inhibition curve with a large enough effect in the signal ratio, with a control signal flat (not every such curve was filed as active); inconclusive = small, poorly fitted or top-dose-only effect, or effect the other way, or a change in a side signal; inactive = flat fitted curve, though single readings scatter; the % refers to the signal ratio. A potency beside an inconclusive call is a rough fit, not a confirmed value.
# Assay: qHTS Assay to Find Inhibitors of Chronic Active B-Cell Receptor Signaling;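 as to activity change, negative = inhibition: plate controls were basal doxycycline-induced cells for no effect and cells given 10 µM MG132 for full effect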
# Conditions: ABC-DLBCL IkBa-CBG/CBR reporter, luminescence ratio (green luciferase fused to IkBa over red control in TMD8 lymphoma cells), 4 h; activity change, negative = inhibition: at 46.1 µM (top of the series) unless noted
# Outline: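 Concentration-response series (up to 46 uM) were applied to TMD8 dual-reporter cells for 4 h at 37C with doxycycline. Green/red ratio, after filter-overlap correction, defined %Activity; red signal alone was normalised to basal cells and zero luminescence.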
# Potency is read from the fitted curve at half-maximal effect.
SMILES,Potency,"activity change, negative = inhibition"
Cc1ccc2c(CC(=O)NCc3ccco3)coc2c1C,"inconclusive: 29.1 µM [falling, single point]",–
O=C(NC(=O)c1ccccc1O)c1ccc(C(F)(F)F)cc1,"inconclusive: 6.31 µM [falling, partial curve]",–
COc1ccccc1-n1c(-c2ccc(Cl)cc2)c[nH]c1=S,"inconclusive: 11.2 µM [falling, partial curve]",–
CC[n+]1c(/C=C/c2ccc(OC(C)=O)c(OC)c2)ccc2ccccc21,–,inconclusive: 21.2%
O=C(NC(=S)NNC(=O)c1cccs1)c1ccccc1,"inconclusive: 31.6 µM [rising, single point]",–
Nc1nc(-c2ccccc2)nc2sc3c(c12)CCCC3,"inconclusive: 25.9 µM [falling, partial curve, poor fit]",–
Cc1ccc(NC(=O)CN(C)CC(=O)Nc2ccc(N3CCOCC3)cc2)c([N+](=O)[O-])c1,–,inconclusive: 4.55%
CCOc1ccc2nc(COC(=O)c3cccs3)c(C(C)=O)[n+]([O-])c2c1,–,inconclusive: 5.38%
Cc1ccsc1C1C(C#N)=C(N)Oc2n[nH]c(C)c21 (stereo not given),"inconclusive: 17.8 µM [falling, single point]",–
Cc1cccc(OCC(=O)Nc2ccc3c(c2)nc(CCN2CCN(c4ccccn4)CC2)n3C)c1,–,inconclusive: 2.65%
CCN1C(=O)C(c2ccc(O)cc2)(c2ccc(O)cc2)c2ccccc21,–,inconclusive: -11.4%
Nc1c(Cl)cc(C2=NCCn3nc4cc([N+](=O)[O-])ccc4c32)cc1Cl,–,inconclusive: 5.51%
CCCCn1c(=O)c2ccccc2c2ccccc2c1=O,–,inconclusive: 4.92%
O=C(O)c1ccc(N/N=C/C2=Cc3ccccc3OC2)cc1,–,inconclusive: 333%
CCc1ccccc1NC(=O)c1cc(S(=O)(=O)N2CCCc3ccccc32)ccc1F,–,inactive
O=C(Nc1cccc(OCC(=O)N2CCOCC2)c1)c1ccc(C(F)(F)F)cc1,"inconclusive: 12.6 µM [falling, partial curve]",–
COCc1cc(=O)n2[nH]c(-c3cccs3)cc2n1,"inconclusive: 22.4 µM [falling, partial curve]",–
COCCNC(=O)[C@H]1N2C(=O)c3c(ccc(OC)c3OC)C2SC1(C)C (stereo not given in full),–,inconclusive: 2.77%
CC(=O)Oc1cc2oc(=O)cc(C)c2cc1OC(C)=O,–,inconclusive: -22.1%
O=C(O)CSc1cc(NS(=O)(=O)c2ccc(Cl)cc2)c2ccccc2c1O,"inconclusive: 22.4 µM [falling, single point]",–
COc1ccc(CCNC(=O)CSc2nnc(CNC(=O)c3c(F)cccc3Cl)o2)cc1OC,–,inconclusive: -2.23%
O=C1C2=C(NC(=S)NC2c2ccc(Cl)cc2)NC(c2ccc(Cl)cc2)N1c1ccc(Cl)cc1 (stereo not given),–,inconclusive: -0.372%
CCN(Cc1ccc2c(c1)OCO2)C(=O)CSc1nc(C)nc2sc(C)c(C)c12,–,inactive
CCCCCCCNC(=O)C1(CC2CC(c3ccccc3)=NO2)CCNCC1 (stereo not given),–,inactive
Cc1ccccc1-n1c(SCc2cccc(F)c2)nc2[nH]ncc2c1=O,"inconclusive: 9.2 µM [falling, partial curve, poor fit]",–
Cc1cc2c(c(=O)o1)C(CCC1CCCCC1)C(C#N)=C(N)O2 (stereo not given),–,inactive
O=C(NCCC1=CCCCC1)c1ccc2c(=O)n3c(nc2c1)CCCCC3,–,inconclusive: 3.04%

SMILES,Potency,"activity change, negative = inhibition"
NS(=O)(=O)c1ccc(CCNC(=O)C2CCN(S(=O)(=O)c3ccccc3)CC2)cc1,–,inactive
CC(=O)Nc1sc2c(c1-c1nc3ccccc3s1)CN(C(C)C)CC2,–,inconclusive: 5.35%
O=C(CN1CCCN(S(=O)(=O)c2ccc(Br)s2)CC1)Nc1ccc(Cl)cc1,–,inconclusive: -20.5%
CCn1cc(S(=O)(=O)NCCc2ccc(OC)c(OC)c2)cn1,–,inactive
Cn1c(-c2ccc(F)cc2)cc2onc(-c3ccccc3Cl)c2c1=O,–,inconclusive: 4.96%
O=C(OCn1ncc(Br)c(Br)c1=O)c1ccccc1Cl,"inconclusive: 9.2 µM [rising, partial curve, poor fit]",–
CC1CCc2c(sc(NC(=O)c3ccccc3C(=O)O)c2C#N)C1 (stereo not given),"inconclusive: 20 µM [falling, partial curve, poor fit]",–
COc1ccc(/C=N/n2c(-c3ccccc3)n[nH]c2=S)cc1,–,inactive
Cc1nn(-c2ncc(C(F)(F)F)cc2Cl)c(=O)n1-c1ccccc1,–,inconclusive: -0.442%
N/C(=N\OC(=O)/C=C/c1ccccc1)c1cccnc1,"inconclusive: 25.1 µM [falling, single point]",–
COCCNc1nc(-c2cc3ccccc3o2)cs1,"inconclusive: 5.17 µM [falling, single point]",–
Cc1ccc(C)c(NC(=S)NCc2cccn2C)c1,–,inactive
CCCc1nnc(NC(=O)c2cc3ccccc3oc2=O)s1,–,inconclusive: 10.3%
c1ccc(-c2csc(Nc3cccnc3)n2)nc1,–,inactive
O=C1c2ccccc2NC(c2ccco2)N1/N=C/c1ccco1 (stereo not given),"inconclusive: 17.8 µM [falling, partial curve, poor fit]",–
O=C(C1CCN(CCCc2ccccc2)CC1)N(CCc1ccccc1)Cc1ccccc1,–,inconclusive: -11.7%
CC1=NN(C(=O)Cn2ccc([N+](=O)[O-])n2)C(O)(C(F)(F)F)C1 (stereo not given),–,inactive
O=C(/C=C/NCC(=O)c1ccccc1)c1ccc(Br)cc1,–,inconclusive: -8.42%
Cc1ccc(S(=O)(=O)c2c(C)nn(C(C)(C)C)c2OC(=O)c2cccs2)cc1,–,inactive
COC(=O)C1=C(CS(=O)(=O)c2ccc(OC)c(OC)c2)NC(=O)NC1c1ccc(O)c(OC)c1 (stereo not given),–,inactive
O=C(Nc1cccc(Cl)c1)c1ccc(F)c(S(=O)(=O)N2CCC3(CC2)OCCO3)c1,–,inconclusive: -20.9%
Cc1ccc(-c2cc(C(=O)N/N=C/c3ccoc3)c3ccccc3n2)cc1,–,inconclusive: 8.36%
O=C(Nc1ccc2oc(-c3ccncc3)nc2c1)c1ccc([N+](=O)[O-])o1,"inconclusive: 2.82 µM [falling, full curve, poor fit]",–
O=C(Oc1coc(CSc2ncccn2)cc1=O)c1ccccc1[N+](=O)[O-],–,inactive
Cc1ccc(-n2c(O)c(C=Nc3cc(C)on3)c3ccccc3c2=O)c(C)c1,–,inconclusive: 3.66%
CCC(C)NC(=O)CSc1nc2n[nH]c(C)c2c(=N)n1-c1ccc(C)c(Cl)c1 (stereo not given),"inconclusive: 17.8 µM [falling, partial curve, poor fit]",–
O=C(c1ccccc1)N1N=C(C(F)(F)F)CC1(O)c1ccccc1O (stereo not given),"inconclusive: 35.5 µM [falling, single point]",–

# Look-ups from the entries so far:
# Under activity change, negative = inhibition, c1ccc(-c2csc(Nc3cccnc3)n2)nc1 has the entry inactive
# Under Potency, Cc1ccc2c(CC(=O)NCc3ccco3)coc2c1C has the entry inconclusive: 29.1 µM [falling, single point]
# Under Potency, CC1CCc2c(sc(NC(=O)c3ccccc3C(=O)O)c2C#N)C1 (stereo not given) has the entry inconclusive: 20 µM [falling, partial curve, poor fit]

# More compounds

SMILES,Potency,"activity change, negative = inhibition"
O=C(NCCOc1ccccc1)c1cc(C(=O)NCCOc2ccccc2)cc([N+](=O)[O-])c1,–,inconclusive: -0.122%
CC(C)CCN1C(N(C)C)=NC[C@@H]1C,–,inactive
Cc1ccc2oc(=O)c3cnn(CC(=O)N4CCN(c5ccccc5)CC4)c3c2c1,–,inconclusive: -5.23%
Cc1cc(C(=O)N/N=C/c2cccnc2)c(C)o1,"inconclusive: 16.4 µM [falling, partial curve]",–
CC(C)n1c(CSCc2ccc(Cl)cc2Cl)n[nH]c1=S,–,inactive
N/C(=N\OC(=O)CCCc1ccccc1)c1ccccc1,–,inconclusive: 5.61%
CCC(=O)N1CCc2cc(S(=O)(=O)N3CCN(c4ccccn4)CC3)ccc21,–,inactive
Cc1cc(C)cc(NC(=O)N2CCCC2C(=O)Nc2ccc(-n3cnnn3)cc2)c1 (stereo not given),–,inconclusive: 0.512%
CCOC(=O)c1[nH]c2ccc(OC)cc2c1NC(=S)N1CCN(c2cccc(Cl)c2)CC1,–,inconclusive: 15.6%
COc1ccc(Oc2nc(Oc3ccc(OC)cc3)nc(Oc3ccc(OC)cc3)n2)cc1,–,inconclusive: -10.2%
CCC(Sc1nc2ccccc2c2nc(-c3ccccc3)nn12)C(=O)Nc1cccc(OC)c1 (stereo not given),–,inactive
CCN(c1ccccc1)S(=O)(=O)c1ccc(C(=O)Nc2ccc(C)cn2)cc1,–,inconclusive: 11.5%
CN(C)C(CN1C(=O)C2CC=CCC2C1=O)c1cn(C)c2ccccc12 (stereo not given),–,inactive
C=CCN1C(=O)/C(=C\c2cccs2)C(C(=O)OC)=C1C,–,inactive
O=C(NCc1ccco1)C(=O)NCC1OCCCN1S(=O)(=O)c1ccc(F)cc1 (stereo not given),–,inconclusive: -0.924%
Cc1cc(/C=C(\C#N)C(=O)NCc2ccco2)c(C)[nH]1,"inconclusive: 23.1 µM [falling, single point]",–
Cc1ccccc1Cn1cccc1/C=C1/C(=N)N2C=CSC2=NC1=O,–,inactive
CCOc1cccc(C2CC(=O)Nc3cc(OC)c(OC)cc32)c1 (stereo not given),–,inconclusive: -28.3%
CCOC(=O)C1CCCN(CCC(=O)Nc2cccc(C)c2)C1 (stereo not given),"inconclusive: 35.5 µM [falling, single point]",–
CCCOc1cccc(C(=O)N(Cc2ccc(OC)c(OC)c2)C2CCS(=O)(=O)C2)c1 (stereo not given),–,inconclusive: -9.23%
CCOC(=O)c1[nH]c2c(c1-c1ccccc1)C(=O)CC(c1ccc(OC)c(OC)c1)C2 (stereo not given),–,inconclusive: -0.0017%
COc1ccc(C(=O)NCc2cn3ccsc3n2)cc1OC,–,inconclusive: 19.3%
Cc1cccc(-c2noc(CN(C)C(=O)c3ccoc3C)n2)c1,–,inactive
CC1(C)Cc2ccccc2C(NNC(=O)c2ccccn2)=N1,"inconclusive: 13 µM [falling, partial curve]",–
COC(=O)[C@H](C(C)C)N(Cc1ccccc1)S(=O)(=O)CCN1CCN(c2ccccc2)CC1,–,inactive
Cc1nc(Nc2cccc(C(C)O)c2)c2nnn(Cc3ccc(F)cc3)c2n1 (stereo not given),–,inconclusive: 8.13%
